Test results taken from article PMC8316374.
Results are given in words; binding and its absence hold for the method and conditions named. Binding seen in cells or lysates may run through a third protein. Where a sequence is shown, tags or fusion partners need not be part of it.

Target: T1, SNX19-GFP (human) (UniProt Q92543)
T1 sequence: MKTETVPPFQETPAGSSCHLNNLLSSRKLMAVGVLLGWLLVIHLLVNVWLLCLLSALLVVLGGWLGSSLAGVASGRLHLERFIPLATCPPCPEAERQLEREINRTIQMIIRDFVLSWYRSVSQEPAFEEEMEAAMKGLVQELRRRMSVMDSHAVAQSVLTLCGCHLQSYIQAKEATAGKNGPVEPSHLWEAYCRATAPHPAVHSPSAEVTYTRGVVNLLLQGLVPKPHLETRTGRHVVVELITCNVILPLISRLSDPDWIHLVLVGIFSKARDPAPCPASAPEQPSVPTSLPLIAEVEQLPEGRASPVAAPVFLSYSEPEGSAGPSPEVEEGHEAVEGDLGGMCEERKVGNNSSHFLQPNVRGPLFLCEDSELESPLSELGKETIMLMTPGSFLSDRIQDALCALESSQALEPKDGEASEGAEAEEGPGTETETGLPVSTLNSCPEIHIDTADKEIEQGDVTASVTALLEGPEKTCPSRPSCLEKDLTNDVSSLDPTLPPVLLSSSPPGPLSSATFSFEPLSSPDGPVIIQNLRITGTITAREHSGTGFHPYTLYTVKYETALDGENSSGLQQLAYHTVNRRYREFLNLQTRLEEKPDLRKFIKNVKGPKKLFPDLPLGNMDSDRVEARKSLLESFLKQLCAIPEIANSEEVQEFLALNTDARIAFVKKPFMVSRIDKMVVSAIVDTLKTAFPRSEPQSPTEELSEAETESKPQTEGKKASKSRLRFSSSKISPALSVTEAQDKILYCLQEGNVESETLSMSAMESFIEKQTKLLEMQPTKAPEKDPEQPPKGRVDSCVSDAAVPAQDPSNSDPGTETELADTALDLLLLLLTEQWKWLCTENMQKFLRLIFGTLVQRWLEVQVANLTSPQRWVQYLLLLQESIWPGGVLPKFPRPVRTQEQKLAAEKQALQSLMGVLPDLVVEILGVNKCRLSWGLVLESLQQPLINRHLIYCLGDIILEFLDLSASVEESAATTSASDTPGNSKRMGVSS
Assay: co-IP; GFP-Trap magnetic beads on lysates of HEK293T cells transfected with SNX19-GFP; endogenous kinesin chains looked for by immunoblot

**Q.** How did the binding turn out when “kinesin-3 (human (endogenous in HEK293T))” was run?
**A.** no binding
